Laboratory results: PubChem BioAssay AID504764 (Drosophila RNAi Screening Center, 2011)
Screen: 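Genes whose knock-down alters Notch-dependent transcription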 (primary screen). Cells: Drosophila Kc167 cells. Knock-down reagent: long dsRNA against Drosophila genes. Time to read-out: about 5 days (4 days dsRNA, then 24 h after transfection). Treatment: transfection of constitutively active membrane-tethered Notch lacking the extracellular domain, read 24 h later. Detection: 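Firefly luciferase from an E(spl)m3 reporter with active Notch, plus control-promoter and uninduced reporter wells for normalisation; unnormalised counts, duplicate wells a and b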. Reading the numbers: induced reporter light, run 1, well a and induced reporter light, run 1, well b: higher = more light from the Notch target reporter with active Notch; control promoter light, run 1, well a and control promoter light, run 1, well b: higher = more light from the viral control promoter (cell number, transfection, viability); uninduced reporter light, run 1, well a: higher = more light from the Notch target reporter without active Notch. Call rule: 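Wells with low control signal or poorly matching duplicates excluded; duplicates averaged; per source plate, z beyond ±2 for induced/control log2 ratio or beyond ±1.8 for induced/uninduced marks a hit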. Calls: active = modifier hit (raised or lowered Notch signal); inactive = not a hit.
In all, the deposit lists about 22,000 reagents; shown is a random part of those that have a named target and a result. In the full data, 403 (1.9%) are marked active. 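Unnormalised raw counts per well; ratio z-scores behind the hit calls and whether each hit raises or lowers signal are not deposited.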 A number with no mark means an inactive call. Reagents against one gene are numbered here. A plus sign joins genes that one reagent is predicted to hit. Not stated in the record: the amount of reagent.

gene	reagent	induced reporter light, run 1, well a	induced reporter light, run 1, well b	control promoter light, run 1, well a	control promoter light, run 1, well b	uninduced reporter light, run 1, well a
Dlic	1	1.49e5	1.34e5	1.68e5	1.66e5	11870
CG12951	1	68365	96860	93230	77595	5020
CG34328	1	79250	72920	83845	90475	7060
Etf-QO	1	2.70e5	2.34e5	3.57e5	3.02e5	21480
CG18294	1	1.10e5	1.22e5	1.17e5	1.06e5	9850
CG8046	1	2.03e5	2.16e5	1.77e5	2.02e5	15035
Syt12	1	1.46e5	1.42e5	3.29e5	2.91e5	9120
pira	1	82715	91335	1.29e5	1.18e5	5590
nrv2	1	30075	32945	33750	27585	1905
nrv2	2	1.56e5	1.67e5	1.77e5	1.78e5	17755
Naa20A	1	1.34e5	1.29e5	1.05e5	84940	10495
DIP-beta	1	2.55e5	2.03e5	2.64e5	3.21e5	14705
DIP-beta	2	73645	79070	60845	1.12e5	10470
DIP-beta	3	90095	79115	99155	1.12e5	10035
DIP-beta	4	1.14e5	86725	1.03e5	1.18e5	11885
Neu2	1	1.10e5	1.07e5	83495	65125	6685
CG4041	1	1.22e5	1.32e5	2.41e5	2.01e5	9880
Sox14	1	1.80e5	1.94e5	1.63e5	1.49e5	11870
CG34316	1	1.12e5	99120	1.01e5	1.28e5	9255
CG32246	1	1.64e5	1.60e5	1.86e5	1.68e5	10400
CG5853	1	1.54e5	1.27e5	1.40e5	1.40e5	8635
CG5853	2	2.34e5	2.45e5	2.09e5	2.28e5	16328
Eig71Ec	1	1.52e5	2.17e5	2.46e5	1.89e5	9845
CG17242	1	1.17e5	99740	1.03e5	74145	10565
Ilk	1	2.03e5	1.77e5	2.93e5	3.20e5	14480
CG16717	1	2.03e5	1.71e5	2.27e5	1.50e5	9875
CG2070	1	1.40e5	1.53e5	2.16e5	1.91e5	13120
Rcd-1r + CG13102	1	1.05e5	1.17e5	70085	72560	14610
CG8388	1	1.20e5	1.14e5	1.32e5	1.52e5	9420
RpL7	1	11920	11825	9985	8485	1235
CG30356	1	45540	55285	72110	92910	2930
CG8736	1	1.50e5	1.48e5	1.84e5	1.81e5	12555
RPA1	1	83065	68115	47785	33185	9300
Coa7	1	91050	1.00e5	1.16e5	1.20e5	9655
Hsp70Aa + Hsp70Bb + Hsp70Ba + 3 more	1	77885	86020	89675	98490	5730
Tbca	1	1.57e5	1.34e5	2.02e5	2.50e5	11725
CG42535	1	2.00e5	1.98e5	2.05e5	2.27e5	13265
maf-S	1	66490 (active)	1.05e5	3.23e5	3.13e5	5860
CG17648	1	1.26e5	1.33e5	1.04e5	90985	9990
ppk3	1	1.76e5 (active)	1.86e5	1.30e5	1.30e5	12165
btsz	1	30460	30300	25245	22850	8595
btsz	2	2.03e5	2.19e5	2.43e5	2.19e5	17420
vnd	1	82250	91455	1.08e5	1.26e5	7695
vnd	2	1.17e5	1.16e5	1.98e5	2.23e5	8838
Gs1	1	1.48e5	1.79e5	2.20e5	2.36e5	18482
CG17328	1	1.78e5	1.44e5	1.20e5	1.50e5	13310
CG42544	1	1.68e5	1.44e5	1.22e5	1.03e5	9060
tbrd-3	1	1.54e5	1.49e5	1.49e5	1.56e5	11690
CG34214	1	1.84e5	1.98e5	1.96e5	2.05e5	15025
Dab	1	2.15e5	1.95e5	2.75e5	2.07e5	7605

Part of the list above, limited to “uninduced reporter light, run 1, well a”.
CG8736 = 12555
RPA1 = 9300
Coa7 = 9655
Hsp70Aa + Hsp70Bb + Hsp70Ba + 3 more = 5730
Tbca = 11725
CG42535 = 13265
maf-S = 5860 (active)
